Test results reported in patent publication US20140256621A1.

Target: Monkey SA (monkey)
Experiment: SPR (BioRad ProteOn XPR36), immobilized albumin

binding: binds
B1: PEP07986-neutral linker-A500 (Compound 2) (protein)
chain: MGSLAEAKEAANAELDSYGVSDFYKRLIDKAKTVEGVEALKDAILAALPTGGGGSGGGSGGGSGGGSASVPIQKVQDDTKTLIKTIVTRINDISHTQSVSSKQKVTGLEFIPGLHPILTLSKMDQTLAVYQQILTSMPSRNVIQISNDLENLRDLLHVLAFSKSCHLPQASGLETLESLGGVLEASGYSTEVVALSRLQGSLQDMLQQLDLSPGC

Results are given in words; binding and its absence hold for the method and conditions named. Binding calls can cover weak binding; strength is not graded here.
